Reference: PubChem BioAssay AID248 (DTP/NCI, 2004)
The list is a part of this screen's results and no random one: it gathers tests that were run many times, whatever their T/C, doses with no T/C, and many T/C values between a quarter and a half above the control. Further doses and runs are listed elsewhere. T/C gives the treated animals as a percentage of the vehicle group. Some doses have a count of surviving animals in place of a T/C: the source holds a T/C of zero for them, seemingly a mark for toxic or unscored doses. Some doses without a T/C left all or most animals alive at the check, yet need not have been tolerated: the source hardly ever lists a survival T/C far under the control, and the zero likely stands for such cases as well. Counts of survivors are from the toxicity check (mostly the fifth day) where no day follows; animals may have died later. Schedule codes are those of the source, taken here to give the interval after Q, in days (D) or hours (H), and the number of doses after X. Some doses were run more than once; their values stand side by side, smallest first. Some schedules carry Z or #; the key to these is not given. Where survival is the endpoint, the PubChem record calls one and a half times the control and up active, and a quarter to a half above the control has no call in these data; cut-offs in other NCI protocols can differ. Some T/C values are followed by the survivors on the day toxicity was checked, most often the fifth; where none is given, no animal had died by that day.

System: L1210 leukemia ip in BDF1 mice, survival T/C
Assay: NCI In Vivo Anticancer Drug Screen. Data for tumor model L1210 Leukemia (intraperitoneal) in B6D2F1 (BDF1) mice
Conditions: T/C endpoint: mean survival time, higher T/C = longer survival
[1] = dose: 400.0 mg/kg/injection, schedule: Q01DX009 (ip), vehicle: Klucel (hydroxypropylcellulose) (HPC)
[2] = dose: 200.0 mg/kg/injection, schedule: Q01DX001 (ip), vehicle: saline
[3] = dose: 400.0 mg/kg/injection, schedule: Q01DX001 (ip), vehicle: saline
[4] = dose: 25.0 mg/kg/injection, schedule: Q04DX003 (ip), vehicle: saline
[5] = dose: 50.0 mg/kg/injection, schedule: Q04DX003 (ip), vehicle: saline
[6] = dose: 100.0 mg/kg/injection, schedule: Q04DX003 (ip), vehicle: saline
[7] = dose: 400.0 mg/kg/injection, schedule: Q04DX003 (ip), vehicle: saline
[8] = dose: 200.0 mg/kg/injection, schedule: Q04DX003 (ip), vehicle: Klucel (hydroxypropylcellulose) (HPC)
[9] = dose: 400.0 mg/kg/injection, schedule: Q04DX003 (ip), vehicle: Klucel (hydroxypropylcellulose) (HPC)
[10] = dose: 200.0 mg/kg/injection, schedule: Q01DX009 (ip), vehicle: Klucel (hydroxypropylcellulose) (HPC)
[11] = dose: 600.0 mg/kg/injection, schedule: Q01DX015 (ip), vehicle: water

O=C(CN1C(=O)C(=O)O/C1=C/c1ccccc1)OCc1ccccc1
survivor count [1]: 0 of 6

COc1ccc2c(c1)c1c(C)c3cnccc3c(C)c1n2C
T/C (dose: 100.0 mg/kg/injection, schedule: Q01DX001 (ip), vehicle: saline): 127 % of control | T/C (dose: 175.0 mg/kg/injection, schedule: Q01DX001 (ip), vehicle: saline): 138 % of control | T/C [2]: 144 % of control | T/C [3]: 147 % of control [3 of 4 alive] | T/C (dose: 600.0 mg/kg/injection, schedule: Q01DX001 (ip), vehicle: saline): 125 % of control [4 of 6 alive]

C=C(Br)S(=O)(=O)C(=C)Br
survivor count (dose: 25.0 mg/kg/injection, schedule: Q04DX002 (ip), vehicle: alcohol): 1 of 3 | survivor count (dose: 50.0 mg/kg/injection, schedule: Q04DX002 (ip), vehicle: alcohol): 0 of 3 | survivor count (dose: 100.0 mg/kg/injection, schedule: Q04DX002 (ip), vehicle: alcohol): 0 of 3 | survivor count (dose: 200.0 mg/kg/injection, schedule: Q04DX002 (ip), vehicle: alcohol): 0 of 3 | survivor count (dose: 400.0 mg/kg/injection, schedule: Q04DX002 (ip), vehicle: alcohol): 0 of 3

CCCCCCC(=O)N(CCCC)CCCC
survivor count (dose: 400.0 mg/kg/injection, schedule: Q01DX009 (ip), vehicle: carboxymethylcellulose (CMC)): 1 of 3 and 6 of 6

[O-][n+]1ccccc1CCl
survivor count [2]: 2 of 4 | survivor count [3]: 0 of 4

Nc1ncnc2c1ncn2[C@H]1CC[C@@H](CO)C1
survivor count [3]: 2 of 4

O=C(O)c1cccc(C#Cc2ccccc2)c1
survivor count (dose: 400.0 mg/kg/injection, schedule: Q01DX001 (ip), vehicle: Klucel (hydroxypropylcellulose) (HPC)): 3 of 6

CCOC(=O)N/N=C/C(Br)=C\c1ccccc1
survivor count (dose: 100.0 mg/kg/injection, schedule: Q01DX009 (ip), vehicle: saline with Tween-80): 3 of 3 | survivor count (dose: 400.0 mg/kg/injection, schedule: Q04DX002 (ip), vehicle: saline with Tween-80): 1 of 3

COc1cc2ccc3c(c2cc1OC)C=NCC3
survivor count (dose: 1.56 mg/kg/injection, schedule: Q01DX009 (ip), vehicle: saline): 3 of 6 | survivor count [4]: 0 of 6 | survivor count [5]: 0 of 6 | survivor count [6]: 3 of 6 | survivor count (dose: 200.0 mg/kg/injection, schedule: Q04DX003 (ip), vehicle: saline): 0 of 6 | survivor count [7]: 0 of 6

NC(=O)C(=O)NCCCN1CC1
survivor count [8]: 1 of 6 | survivor count [9]: 0 of 6

O=c1c(Br)c[nH]cc1Br
survivor count [10]: 0 of 6 | survivor count [1]: 0 of 6

Cc1cc(Oc2nc(Cl)nc(C(Cl)(Cl)Cl)c2Cl)cc(C)c1N(C)C (tested in a mixture with another compound)
survivor count [9]: 3 of 3

OCC1OC(n2cnc3c(SCc4ccccc4)ncnc32)C(O)C1O (centres undefined)
survivor count (dose: 50.0 mg/kg/injection, schedule: Q01DX Z (ip), vehicle: methylcellulose (MC)): 0 of 6 | T/C (dose: 58.0 mg/kg/injection, schedule: Q01DX009 (ip), vehicle: saline): 145 % of control | T/C (dose: 88.0 mg/kg/injection, schedule: Q01DX009 (ip), vehicle: saline): 142 % of control | survivor count (dose: 100.0 mg/kg/injection, schedule: Q01DX Z (ip), vehicle: methylcellulose (MC)): 0 of 6 | T/C (dose: 200.0 mg/kg/injection, schedule: Q01DX009 (ip), vehicle: saline): 125 % of control | survivor count (dose: 200.0 mg/kg/injection, schedule: Q01DX Z (ip), vehicle: methylcellulose (MC)): 0 of 6 | survivor count (dose: 300.0 mg/kg/injection, schedule: Q01DX009 (ip), vehicle: carboxymethylcellulose (CMC)): 5 of 6 | survivor count (dose: 300.0 mg/kg/injection, schedule: Q01DX009 (ip), vehicle: saline): 6 of 6

CN(C=O)C(=S)[S][Sb]([S]C(=S)Nc1ccc(S(=O)(=O)Nc2ccc(N=Nc3ccccc3)cc2)cc1)[S]C(=S)N(C)C=O
survivor count (dose: 400.0 mg/kg/injection, schedule: Q01DX001 (ip), vehicle: steroid suspending solution): 0 of 6

Cc1ccc(N=Cc2cc(I)cc(I)c2O)cc1.Cc1ccc(N=Cc2cc(I)cc(I)c2O)cc1.[Co]
survivor count (dose: 100.0 mg/kg/injection, schedule: Q04DX003 (ip), vehicle: saline with Tween-80): 3 of 3

S=C(Nc1ccccn1)Nc1ccccn1
survivor count (dose: 100.0 mg/kg/injection, schedule: Q04DX003 (ip), vehicle: Klucel (hydroxypropylcellulose) (HPC)): 0 of 6

COCCOCCN1CCN(CCCN2c3ccccc3Sc3ccc(C(F)(F)F)cc32)CC1
T/C [4]: 131 % of control | T/C (dose: 33.0 mg/kg/injection, schedule: Q04DX003 (ip), vehicle: saline): 147 % of control | survivor count (dose: 35.0 mg/kg/injection, schedule: Q04DX003 (ip), vehicle: saline): 6 of 6 | T/C [5]: 138 % of control | survivor count [5]: 3 of 6 | survivor count (dose: 75.0 mg/kg/injection, schedule: Q04DX003 (ip), vehicle: saline): 0 of 6 and 5 of 6 | survivor count [6]: 6 of 6

OC(CC(O)(c1ccccc1)c1ccccc1)(c1ccccc1)c1ccccc1
survivor count (dose: 75.0 mg/kg/injection, schedule: Q01DX001 (ip), vehicle: other): 3 of 6 | survivor count (dose: 150.0 mg/kg/injection, schedule: Q01DX001 (ip), vehicle: other): 0 of 6 | survivor count (dose: 300.0 mg/kg/injection, schedule: Q01DX001 (ip), vehicle: other): 0 of 6

ClCCN(CC#CCCCC#CCN(CCCl)CCCl)CCCl
survivor count [2]: 3 of 6 | survivor count [3]: 0 of 6

CCN(CC)CCN(CCO)Cc1ccccc1
survivor count [10]: 0 of 6 | survivor count [8]: 0 of 6 | survivor count [9]: 0 of 6

O=C(COc1ccc(Cl)cc1)Nc1ccccc1C(F)(F)F
survivor count [10]: 5 of 6

COc1nc(N)c(C(N)=O)cc1C#N
survivor count (dose: 175.0 mg/kg/injection, schedule: Q04DX003 (ip), vehicle: Klucel (hydroxypropylcellulose) (HPC)): 2 of 6 | survivor count (dose: 350.0 mg/kg/injection, schedule: Q04DX003 (ip), vehicle: Klucel (hydroxypropylcellulose) (HPC)): 1 of 6

O=N[O-].[Co].[N-]=C=S.[NH2-].[NH2-].[NH2-].[NH2-]
T/C (dose: 25.0 mg/kg/injection, schedule: Q01DX009 (ip), vehicle: saline): 130 % of control | T/C (dose: 45.0 mg/kg/injection, schedule: Q01DX009 (ip), vehicle: saline): 130 % of control | survivor count (dose: 400.0 mg/kg/injection, schedule: Q04DX003 (ip), vehicle: saline with Tween-80): 0 of 6

O=C(NO)c1ccc([N+](=O)[O-])cc1
T/C [11]: 137 % of control [5 of 6 alive] | survivor count [11]: 2 of 6 and 3 of 6 | survivor count (dose: 800.0 mg/kg/injection, schedule: Q01DX001 (ip), vehicle: water): 0 of 6 | survivor count (dose: 800.0 mg/kg/injection, schedule: Q01DX009 (ip), vehicle: Klucel (hydroxypropylcellulose) (HPC)): 0 of 8 | survivor count (dose: 800.0 mg/kg/injection, schedule: Q01DX015 (ip), vehicle: water): 0 of 6

Nc1cc(/C=C/c2ccc(/C=C/c3ccc(S(=O)(=O)F)cc3)cc2)nc(N)n1
survivor count (dose: 200.0 mg/kg/injection, schedule: Q01DX001 (ip), vehicle: saline with Tween-80): 6 of 6

CC[N+](C)(CC)CCOC(=O)C1C2CC3OC(=O)C1C3C2 (centres undefined)
survivor count [7]: 1 of 3

Cc1ccc(S(=O)(=O)NC(=O)N(CCCl)N=O)cc1
T/C (dose: 20.0 mg/kg/injection, schedule: Q01DX001 (ip), vehicle: other): 144 % of control | survivor count (dose: 250.0 mg/kg/injection, schedule: Q01DX001 (ip), vehicle: other): 6 of 6 | survivor count (dose: 375.0 mg/kg/injection, schedule: Q01DX001 (ip), vehicle: other): 2 of 6 | survivor count (dose: 500.0 mg/kg/injection, schedule: Q01DX001 (ip), vehicle: other): 0 of 6 | survivor count (dose: 750.0 mg/kg/injection, schedule: Q01DX001 (ip), vehicle: other): 0 of 6 | survivor count (dose: 1000.0 mg/kg/injection, schedule: Q01DX001 (ip), vehicle: other): 0 of 6
